From PMC8293820
No constants are given. Whether binding was seen depends on the method and setting. In cells and extracts the contact can be indirect. Some results given as binding are weak or reduced against the parent protein; the word gives no strength. Each block holds one binder with its values, some of them ahead of it.

Columns and labels:
Assay in all cases: co-IP; nuclear proteins (25 ug/group) of human blood mDCs treated 40 h with medium, TSLP and/or curdlan; pre-cleared; anti-p105/p50 or anti-RelB with Protein A/G magnetic beads overnight at 4°C; immunoblot
[1] = biological target: T1, p50 (human (endogenous in blood mDCs)), P19838; conditions: remark: other sources report otherwise
T1 chain: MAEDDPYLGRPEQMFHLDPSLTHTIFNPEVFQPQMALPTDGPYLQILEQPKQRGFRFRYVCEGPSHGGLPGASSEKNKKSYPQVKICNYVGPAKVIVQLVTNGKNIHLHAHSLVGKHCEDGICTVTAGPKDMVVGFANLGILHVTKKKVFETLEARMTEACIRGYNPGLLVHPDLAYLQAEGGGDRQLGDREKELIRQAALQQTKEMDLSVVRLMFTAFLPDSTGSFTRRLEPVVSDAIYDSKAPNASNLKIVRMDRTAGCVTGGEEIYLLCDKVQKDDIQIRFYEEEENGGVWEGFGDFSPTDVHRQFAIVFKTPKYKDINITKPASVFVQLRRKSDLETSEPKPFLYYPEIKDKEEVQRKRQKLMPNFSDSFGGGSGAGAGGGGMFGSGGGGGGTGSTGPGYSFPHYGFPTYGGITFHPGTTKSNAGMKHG

[2] = biological target: T2, RelB (human (endogenous in blood mDCs)) (UniProt Q01201)
T2 sequence: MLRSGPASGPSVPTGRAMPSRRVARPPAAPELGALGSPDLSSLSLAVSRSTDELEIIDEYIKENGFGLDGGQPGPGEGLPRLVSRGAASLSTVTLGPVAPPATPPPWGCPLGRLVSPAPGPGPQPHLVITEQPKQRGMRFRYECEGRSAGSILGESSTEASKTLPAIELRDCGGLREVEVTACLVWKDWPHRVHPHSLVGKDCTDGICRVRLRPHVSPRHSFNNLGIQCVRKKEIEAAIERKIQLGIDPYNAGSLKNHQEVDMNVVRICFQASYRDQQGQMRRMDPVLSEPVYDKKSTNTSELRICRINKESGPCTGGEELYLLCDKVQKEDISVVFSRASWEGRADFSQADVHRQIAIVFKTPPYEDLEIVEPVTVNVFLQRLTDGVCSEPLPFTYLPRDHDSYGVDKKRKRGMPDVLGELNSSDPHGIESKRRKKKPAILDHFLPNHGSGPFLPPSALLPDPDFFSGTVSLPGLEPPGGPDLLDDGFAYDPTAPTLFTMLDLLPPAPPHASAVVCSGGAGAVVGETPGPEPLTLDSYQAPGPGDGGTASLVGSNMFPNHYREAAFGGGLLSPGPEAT

[3] = biological target: T3, RelB (human (endogenous in blood mDCs)), Q01201; conditions: remark: other sources report otherwise
T3 chain: T2 sequence

binding [1]: binds
B1: RelB, Q01201 1-579 (protein)
chain: T2 sequence

binding [2]: binds
B2: p100 (protein, UniProt Q00653-1 1-900)
chain: MESCYNPGLDGIIEYDDFKLNSSIVEPKEPAPETADGPYLVIVEQPKQRGFRFRYGCEGPSHGGLPGASSEKGRKTYPTVKICNYEGPAKIEVDLVTHSDPPRAHAHSLVGKQCSELGICAVSVGPKDMTAQFNNLGVLHVTKKNMMGTMIQKLQRQRLRSRPQGLTEAEQRELEQEAKELKKVMDLSIVRLRFSAFLRASDGSFSLPLKPVISQPIHDSKSPGASNLKISRMDKTAGSVRGGDEVYLLCDKVQKDDIEVRFYEDDENGWQAFGDFSPTDVHKQYAIVFRTPPYHKMKIERPVTVFLQLKRKRGGDVSDSKQFTYYPLVEDKEEVQRKRRKALPTFSQPFGGGSHMGGGSGGAAGGYGGAGGGGSLGFFPSSLAYSPYQSGAGPMGCYPGGGGGAQMAATVPSRDSGEEAAEPSAPSRTPQCEPQAPEMLQRAREYNARLFGLAQRSARALLDYGVTADARALLAGQRHLLTAQDENGDTPLHLAIIHGQTSVIEQIVYVIHHAQDLGVVNLTNHLHQTPLHLAVITGQTSVVSFLLRVGADPALLDRHGDSAMHLALRAGAGAPELLRALLQSGAPAVPQLLHMPDFEGLYPVHLAVRARSPECLDLLVDSGAEVEATERQGGRTALHLATEMEELGLVTHLVTKLRANVNARTFAGNTPLHLAAGLGYPTLTRLLLKAGADIHAENEEPLCPLPSPPTSDSDSDSEGPEKDTRSSFRGHTPLDLTCSTKVKTLLLNAAQNTMEPPLTPPSPAGPGLSLGDTALQNLEQLLDGPEAQGSWAELAERLGLRSLVDTYRQTTSPSGSLLRSYELAGGDLAGLLEALSDMGLEEGVRLLRGPETRDKLPSTAEVKEDSAYGSQSVEQEAEKLGPPPEPPGGLCHGHPQPQVH

binding [3]: binds
B3: p50, P19838 1-433 (protein)
chain: T1 chain
